{"source": "the supplement of paper PMC8728848", "binders": {"B1": {"name": "MFG-E8 (Mus musculus), P21956 (protein)", "chain": "MQVSRVLAALCGMLLCASGLFAASGDFCDSSLCLNGGTCLTGQDNDIYCLCPEGFTGLVCNETERGPCSPNPCYNDAKCLVTLDTQRGDIFTEYICQCPVGYSGIHCETETNYYNLDGEYMFTTAVPNTAVPTPAPTPDLSNNLASRCSTQLGMEGGAIADSQISASSVYMGFMGLQRWGPELARLYRTGIVNAWTASNYDSKPWIQVNLLRKMRVSGVMTQGASRAGRAEYLKTFKVAYSLDGRKFEFIQDESGGDKEFLGNLDNNSLKVNMFNPTLEAQYIKLYPVSCHRGCTLRFELLGCELHGCSEPLGLKNNTIPDSQMSASSSYKTWNLRAFGWYPHLGRLDNQGKINAWTAQSNSAKEWLQVDLGTQRQVTGIITQGARDFGHIQYVASYKVAHSDDGVQWTVYEEQGSSKVFQGNLDNNSHKKNIFEKPFMARYVRVLPVSWHNRITLRLELLGC"}}, "experiment_in_all_cases": "glycan array binding signal (z-score within array); higher = stronger binding", "settings_in_all_cases": "glycan notation: IUPAC condensed, linker removed", "key": {"[1]": {"target": "Neu5Ac(a2-6)GalNAc", "how_it_was_run": "(§1)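 The binding signal is a Z-score computed within each array and averaged over linkers. Arrays of the same protein sequence at different concentrations or buffers were also averaged together. Data originate from 3228 arrays in the Consortium for Functional Glycomics database, kept only where the protein sequence was available.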"}, "[2]": {"target": "Neu5Ac(a2-6)GalNAc(b1-4)GlcNAc", "how_it_was_run": "as §1"}, "[3]": {"target": "Neu5Ac(a2-6)GalNAc(b1-4)GlcNAc6S", "how_it_was_run": "as §1"}, "[4]": {"target": "Neu5Ac(a2-6)GlcNAc(b1-4)GlcNAc", "how_it_was_run": "as §1"}, "[5]": {"target": "Neu5Ac(a2-6)GlcNAc(b1-4)GlcNAc(b1-4)GlcNAc", "how_it_was_run": "as §1"}, "[6]": {"target": "Neu5Ac(a2-8)Neu5Ac", "how_it_was_run": "as §1"}, "[7]": {"target": "Neu5Ac(a2-8)Neu5Ac(a2-3)Gal(b1-3)GalNAc(b1-4)[Neu5Ac(a2-3)]Gal(b1-4)Glc", "how_it_was_run": "as §1"}, "[8]": {"target": "Neu5Ac(a2-8)Neu5Ac(a2-3)Gal(b1-3)GalNAc(b1-4)[Neu5Ac(a2-8)Neu5Ac(a2-3)]Gal(b1-4)Glc", "how_it_was_run": "as §1"}, "[9]": {"target": "Neu5Ac(a2-8)Neu5Ac(a2-3)Gal(b1-4)Glc", "how_it_was_run": "as §1"}, "[10]": {"target": "Neu5Ac(a2-8)Neu5Ac(a2-3)Gal(b1-4)GlcNAc", "how_it_was_run": "as §1"}, "[11]": {"target": "Neu5Ac(a2-8)Neu5Ac(a2-3)[Gal(b1-3)GalNAc(b1-4)]Gal(b1-4)Glc", "how_it_was_run": "as §1"}, "[12]": {"target": "Neu5Ac(a2-8)Neu5Ac(a2-3)[GalNAc(b1-4)]Gal(b1-4)Glc", "how_it_was_run": "as §1"}, "[13]": {"target": "Neu5Ac(a2-8)Neu5Ac(a2-8)Neu5Ac", "how_it_was_run": "as §1"}, "[14]": {"target": "Neu5Ac(a2-8)Neu5Ac(a2-8)Neu5Ac(a2-3)Gal(b1-4)Glc", "how_it_was_run": "as §1"}, "[15]": {"target": "Neu5Ac(a2-8)Neu5Ac(a2-8)Neu5Ac(a2-3)[Gal(b1-3)GalNAc(b1-4)]Gal(b1-4)Glc", "how_it_was_run": "as §1"}, "[16]": {"target": "Neu5Ac(a2-8)Neu5Ac(a2-8)Neu5Ac(a2-3)[GalNAc(b1-4)]Gal(b1-4)Glc", "how_it_was_run": "as §1"}, "[17]": {"target": "Neu5Ac(a2-8)Neu5Ac(a2-8)Neu5Ac(a2-8)Neu5Ac(a2-3)[GalNAc(b1-4)]Gal(b1-4)Glc", "how_it_was_run": "as §1"}, "[18]": {"target": "Neu5Ac(a2-8)Neu5Gc(a2-3)Gal(b1-4)GlcNAc", "how_it_was_run": "as §1"}, "[19]": {"target": "Neu5Ac(b2-6)Gal(b1-4)GlcNAc", "how_it_was_run": "as §1"}, "[20]": {"target": "Neu5Ac(b2-6)GalNAc", "how_it_was_run": "as §1"}, "[21]": {"target": "Neu5Ac9Ac(a2-3)Gal(b1-3)GlcNAc", "how_it_was_run": "as §1"}, "[22]": {"target": "Neu5Ac9Ac(a2-3)Gal(b1-4)GlcNAc", "how_it_was_run": "as §1"}, "[23]": {"target": "Neu5Ac9Ac(a2-6)Gal(b1-4)GlcNAc", "how_it_was_run": "as §1"}, "[24]": {"target": "Neu5Gc(a2-3)Gal(b1-3)GlcNAc", "how_it_was_run": "as §1"}, "[25]": {"target": "Neu5Gc(a2-3)Gal(b1-3)[Fuc(a1-4)]GlcNAc", "how_it_was_run": "as §1"}, "[26]": {"target": "Neu5Gc(a2-3)Gal(b1-4)Glc", "how_it_was_run": "as §1"}, "[27]": {"target": "Neu5Gc(a2-3)Gal(b1-4)GlcNAc", "how_it_was_run": "as §1"}, "[28]": {"target": "Neu5Gc(a2-3)Gal(b1-4)GlcNAc(b1-3)Gal(b1-4)GlcNAc(b1-2)Man(a1-3)[Neu5Gc(a2-3)Gal(b1-4)GlcNAc(b1-3)Gal(b1-4)GlcNAc(b1-2)Man(a1-6)]Man(b1-4)GlcNAc(b1-4)GlcNAc", "how_it_was_run": "as §1"}, "[29]": {"target": "Neu5Gc(a2-3)Gal(b1-4)[Fuc(a1-3)]GlcNAc", "how_it_was_run": "as §1"}, "[30]": {"target": "Neu5Gc(a2-6)Gal(b1-4)GlcNAc", "how_it_was_run": "as §1"}, "[31]": {"target": "Neu5Gc(a2-6)GalNAc", "how_it_was_run": "as §1"}, "[32]": {"target": "Neu5Gc(a2-8)Neu5Ac(a2-3)Gal(b1-4)GlcNAc", "how_it_was_run": "as §1"}, "[33]": {"target": "Neu5Gc(a2-8)Neu5Gc(a2-3)Gal(b1-4)GlcNAc", "how_it_was_run": "as §1"}, "[34]": {"target": "Neu5Gc(a2-8)Neu5Gc(a2-3)Gal(b1-4)GlcNAc(b1-3)Gal(b1-4)GlcNAc", "how_it_was_run": "as §1"}, "[35]": {"target": "Neu5Gc(a2-8)Neu5Gc(a2-6)Gal(b1-4)GlcNAc", "how_it_was_run": "as §1"}, "[36]": {"target": "Neu5Gc(b2-6)Gal(b1-4)GlcNAc", "how_it_was_run": "as §1"}}, "note": "This is one part of the list.", "data": [{"binder": "B1", "values": [{"measurement": "glycan array binding signal (z-score)", "setting": "[1]", "result": -0.41}, {"measurement": "glycan array binding signal (z-score)", "setting": "[2]", "result": -0.569}, {"measurement": "glycan array binding signal (z-score)", "setting": "[3]", "result": 3.05}, {"measurement": "glycan array binding signal (z-score)", "setting": "[4]", "result": 0.379}, {"measurement": "glycan array binding signal (z-score)", "setting": "[5]", "result": 0.019}, {"measurement": "glycan array binding signal (z-score)", "setting": "[6]", "result": -0.28}, {"measurement": "glycan array binding signal (z-score)", "setting": "[7]", "result": 1.23}, {"measurement": "glycan array binding signal (z-score)", "setting": "[8]", "result": 0.158}, {"measurement": "glycan array binding signal (z-score)", "setting": "[9]", "result": -0.207}, {"measurement": "glycan array binding signal (z-score)", "setting": "[10]", "result": 1.01}, {"measurement": "glycan array binding signal (z-score)", "setting": "[11]", "result": -0.56}, {"measurement": "glycan array binding signal (z-score)", "setting": "[12]", "result": -0.345}, {"measurement": "glycan array binding signal (z-score)", "setting": "[13]", "result": -0.106}, {"measurement": "glycan array binding signal (z-score)", "setting": "[14]", "result": -0.889}, {"measurement": "glycan array binding signal (z-score)", "setting": "[15]", "result": 0.002}, {"measurement": "glycan array binding signal (z-score)", "setting": "[16]", "result": -0.723}, {"measurement": "glycan array binding signal (z-score)", "setting": "[17]", "result": -0.112}, {"measurement": "glycan array binding signal (z-score)", "setting": "[18]", "result": 0.47}, {"measurement": "glycan array binding signal (z-score)", "setting": "[19]", "result": -0.51}, {"measurement": "glycan array binding signal (z-score)", "setting": "[20]", "result": -0.574}, {"measurement": "glycan array binding signal (z-score)", "setting": "[21]", "result": -0.274}, {"measurement": "glycan array binding signal (z-score)", "setting": "[22]", "result": 0.267}, {"measurement": "glycan array binding signal (z-score)", "setting": "[23]", "result": -0.32}, {"measurement": "glycan array binding signal (z-score)", "setting": "[24]", "result": -1.52}, {"measurement": "glycan array binding signal (z-score)", "setting": "[25]", "result": 2.55}, {"measurement": "glycan array binding signal (z-score)", "setting": "[26]", "result": 0.553}, {"measurement": "glycan array binding signal (z-score)", "setting": "[27]", "result": 0.385}, {"measurement": "glycan array binding signal (z-score)", "setting": "[28]", "result": -0.31}, {"measurement": "glycan array binding signal (z-score)", "setting": "[29]", "result": -0.007}, {"measurement": "glycan array binding signal (z-score)", "setting": "[30]", "result": -0.656}, {"measurement": "glycan array binding signal (z-score)", "setting": "[31]", "result": -0.178}, {"measurement": "glycan array binding signal (z-score)", "setting": "[32]", "result": -0.241}, {"measurement": "glycan array binding signal (z-score)", "setting": "[33]", "result": -0.746}, {"measurement": "glycan array binding signal (z-score)", "setting": "[34]", "result": 0.073}, {"measurement": "glycan array binding signal (z-score)", "setting": "[35]", "result": -0.576}, {"measurement": "glycan array binding signal (z-score)", "setting": "[36]", "result": -1.06}]}]}
